Measured values: paper doi:10.1101/721530
These are yes or no findings as the source states them, for the method shown. In cells and extracts the contact can be indirect. Some results given as binding are weak or reduced against the parent protein; the word gives no strength. Values belong to the substance of their own block, whether it stands above or below them.

By UniProt entry, the sequences of proteins in these tests, tags left out. Residues count along the entry.
UniProt P35222: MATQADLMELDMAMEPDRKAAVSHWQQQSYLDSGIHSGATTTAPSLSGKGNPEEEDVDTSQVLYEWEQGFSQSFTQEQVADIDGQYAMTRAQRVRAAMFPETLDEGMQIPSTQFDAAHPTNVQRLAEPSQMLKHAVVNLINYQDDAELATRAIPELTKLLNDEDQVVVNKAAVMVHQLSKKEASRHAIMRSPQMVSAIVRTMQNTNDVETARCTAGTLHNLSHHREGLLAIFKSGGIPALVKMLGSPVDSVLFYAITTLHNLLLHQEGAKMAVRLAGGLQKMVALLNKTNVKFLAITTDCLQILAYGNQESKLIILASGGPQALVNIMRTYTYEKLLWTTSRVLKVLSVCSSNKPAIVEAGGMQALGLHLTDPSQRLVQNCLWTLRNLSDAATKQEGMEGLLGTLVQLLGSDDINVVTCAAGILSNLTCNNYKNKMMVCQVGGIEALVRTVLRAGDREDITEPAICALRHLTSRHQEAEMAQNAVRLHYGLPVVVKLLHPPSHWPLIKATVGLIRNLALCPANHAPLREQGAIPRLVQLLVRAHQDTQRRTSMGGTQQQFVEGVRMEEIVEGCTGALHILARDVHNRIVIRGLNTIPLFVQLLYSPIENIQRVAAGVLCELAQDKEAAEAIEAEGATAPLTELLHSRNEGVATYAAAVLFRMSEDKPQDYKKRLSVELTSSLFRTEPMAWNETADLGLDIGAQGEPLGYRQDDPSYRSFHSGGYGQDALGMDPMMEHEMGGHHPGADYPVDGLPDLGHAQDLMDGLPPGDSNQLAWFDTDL
UniProt Q9Z207: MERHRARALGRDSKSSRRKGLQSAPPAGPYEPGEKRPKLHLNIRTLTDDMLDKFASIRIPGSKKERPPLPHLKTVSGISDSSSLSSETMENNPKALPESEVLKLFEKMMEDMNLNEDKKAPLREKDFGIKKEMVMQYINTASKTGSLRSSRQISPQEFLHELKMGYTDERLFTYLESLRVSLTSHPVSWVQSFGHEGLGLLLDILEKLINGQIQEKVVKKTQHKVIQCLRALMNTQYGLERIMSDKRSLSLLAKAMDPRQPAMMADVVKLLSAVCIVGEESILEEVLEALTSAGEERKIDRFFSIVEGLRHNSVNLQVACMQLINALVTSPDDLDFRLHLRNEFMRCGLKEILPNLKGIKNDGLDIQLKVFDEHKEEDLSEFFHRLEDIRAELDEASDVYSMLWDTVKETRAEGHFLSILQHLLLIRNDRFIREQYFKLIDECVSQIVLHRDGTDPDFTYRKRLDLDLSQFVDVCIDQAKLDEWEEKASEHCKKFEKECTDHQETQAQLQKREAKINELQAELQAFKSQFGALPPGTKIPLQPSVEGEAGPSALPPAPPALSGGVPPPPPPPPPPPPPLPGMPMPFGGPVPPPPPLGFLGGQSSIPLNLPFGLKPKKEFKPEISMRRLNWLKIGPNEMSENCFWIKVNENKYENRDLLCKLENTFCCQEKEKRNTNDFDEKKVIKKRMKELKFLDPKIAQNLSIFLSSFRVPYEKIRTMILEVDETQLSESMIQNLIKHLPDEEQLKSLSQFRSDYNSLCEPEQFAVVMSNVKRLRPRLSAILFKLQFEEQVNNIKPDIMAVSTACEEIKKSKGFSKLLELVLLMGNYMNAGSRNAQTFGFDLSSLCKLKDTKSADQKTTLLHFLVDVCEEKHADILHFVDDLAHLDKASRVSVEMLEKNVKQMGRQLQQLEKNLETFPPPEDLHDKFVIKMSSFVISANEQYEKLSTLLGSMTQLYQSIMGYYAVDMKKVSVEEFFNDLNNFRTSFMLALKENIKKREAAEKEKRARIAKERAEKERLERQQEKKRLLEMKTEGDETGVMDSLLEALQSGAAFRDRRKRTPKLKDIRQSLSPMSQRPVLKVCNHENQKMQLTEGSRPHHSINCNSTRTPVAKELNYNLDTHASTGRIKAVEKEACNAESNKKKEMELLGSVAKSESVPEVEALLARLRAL
UniProt P19022, residues 160-906: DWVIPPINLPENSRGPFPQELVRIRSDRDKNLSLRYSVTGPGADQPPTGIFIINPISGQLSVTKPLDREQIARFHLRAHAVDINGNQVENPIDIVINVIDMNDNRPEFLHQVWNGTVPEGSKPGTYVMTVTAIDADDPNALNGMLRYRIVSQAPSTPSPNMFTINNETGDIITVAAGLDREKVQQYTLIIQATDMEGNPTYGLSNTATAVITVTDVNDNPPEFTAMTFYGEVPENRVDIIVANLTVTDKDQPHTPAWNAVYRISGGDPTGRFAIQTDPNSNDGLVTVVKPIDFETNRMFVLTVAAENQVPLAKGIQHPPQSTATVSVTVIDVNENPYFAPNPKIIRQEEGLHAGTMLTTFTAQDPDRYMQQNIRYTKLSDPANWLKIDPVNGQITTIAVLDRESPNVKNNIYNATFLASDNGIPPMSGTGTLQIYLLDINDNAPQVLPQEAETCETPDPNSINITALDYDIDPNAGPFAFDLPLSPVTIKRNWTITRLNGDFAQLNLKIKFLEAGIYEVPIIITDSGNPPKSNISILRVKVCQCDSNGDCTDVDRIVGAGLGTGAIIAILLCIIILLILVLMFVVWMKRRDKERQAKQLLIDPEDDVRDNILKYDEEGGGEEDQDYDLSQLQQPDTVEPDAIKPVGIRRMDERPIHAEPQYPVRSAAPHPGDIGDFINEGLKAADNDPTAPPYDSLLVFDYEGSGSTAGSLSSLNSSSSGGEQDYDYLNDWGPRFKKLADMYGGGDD
UniProt Q9NSV4: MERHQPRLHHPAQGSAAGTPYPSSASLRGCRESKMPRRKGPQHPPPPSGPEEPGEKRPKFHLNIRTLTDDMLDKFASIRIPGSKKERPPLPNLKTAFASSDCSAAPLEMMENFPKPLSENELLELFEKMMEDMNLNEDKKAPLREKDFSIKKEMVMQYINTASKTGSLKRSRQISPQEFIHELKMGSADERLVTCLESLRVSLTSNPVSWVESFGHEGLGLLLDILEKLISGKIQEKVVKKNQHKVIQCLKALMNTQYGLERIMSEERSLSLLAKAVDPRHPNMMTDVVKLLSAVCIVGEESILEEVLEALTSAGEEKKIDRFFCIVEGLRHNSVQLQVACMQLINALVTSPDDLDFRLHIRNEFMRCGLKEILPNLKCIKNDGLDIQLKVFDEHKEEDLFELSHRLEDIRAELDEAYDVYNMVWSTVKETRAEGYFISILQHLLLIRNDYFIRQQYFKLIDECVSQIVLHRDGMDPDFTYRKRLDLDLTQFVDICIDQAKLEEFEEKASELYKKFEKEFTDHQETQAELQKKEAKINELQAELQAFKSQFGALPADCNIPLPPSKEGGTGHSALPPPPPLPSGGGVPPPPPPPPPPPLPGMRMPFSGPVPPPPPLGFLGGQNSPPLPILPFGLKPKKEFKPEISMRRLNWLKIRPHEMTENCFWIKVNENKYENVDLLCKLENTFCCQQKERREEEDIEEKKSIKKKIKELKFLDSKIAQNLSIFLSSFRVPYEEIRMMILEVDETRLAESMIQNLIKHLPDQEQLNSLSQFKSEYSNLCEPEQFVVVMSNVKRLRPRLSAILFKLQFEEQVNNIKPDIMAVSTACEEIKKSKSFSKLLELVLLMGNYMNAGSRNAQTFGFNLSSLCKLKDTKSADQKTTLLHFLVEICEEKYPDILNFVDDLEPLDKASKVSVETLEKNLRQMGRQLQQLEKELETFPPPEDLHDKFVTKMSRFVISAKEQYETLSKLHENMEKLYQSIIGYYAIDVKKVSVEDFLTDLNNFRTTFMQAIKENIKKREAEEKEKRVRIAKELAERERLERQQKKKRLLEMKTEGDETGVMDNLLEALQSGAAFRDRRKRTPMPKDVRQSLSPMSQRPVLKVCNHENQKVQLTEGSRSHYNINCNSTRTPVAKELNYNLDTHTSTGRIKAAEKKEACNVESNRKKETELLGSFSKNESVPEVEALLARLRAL
UniProt P35221: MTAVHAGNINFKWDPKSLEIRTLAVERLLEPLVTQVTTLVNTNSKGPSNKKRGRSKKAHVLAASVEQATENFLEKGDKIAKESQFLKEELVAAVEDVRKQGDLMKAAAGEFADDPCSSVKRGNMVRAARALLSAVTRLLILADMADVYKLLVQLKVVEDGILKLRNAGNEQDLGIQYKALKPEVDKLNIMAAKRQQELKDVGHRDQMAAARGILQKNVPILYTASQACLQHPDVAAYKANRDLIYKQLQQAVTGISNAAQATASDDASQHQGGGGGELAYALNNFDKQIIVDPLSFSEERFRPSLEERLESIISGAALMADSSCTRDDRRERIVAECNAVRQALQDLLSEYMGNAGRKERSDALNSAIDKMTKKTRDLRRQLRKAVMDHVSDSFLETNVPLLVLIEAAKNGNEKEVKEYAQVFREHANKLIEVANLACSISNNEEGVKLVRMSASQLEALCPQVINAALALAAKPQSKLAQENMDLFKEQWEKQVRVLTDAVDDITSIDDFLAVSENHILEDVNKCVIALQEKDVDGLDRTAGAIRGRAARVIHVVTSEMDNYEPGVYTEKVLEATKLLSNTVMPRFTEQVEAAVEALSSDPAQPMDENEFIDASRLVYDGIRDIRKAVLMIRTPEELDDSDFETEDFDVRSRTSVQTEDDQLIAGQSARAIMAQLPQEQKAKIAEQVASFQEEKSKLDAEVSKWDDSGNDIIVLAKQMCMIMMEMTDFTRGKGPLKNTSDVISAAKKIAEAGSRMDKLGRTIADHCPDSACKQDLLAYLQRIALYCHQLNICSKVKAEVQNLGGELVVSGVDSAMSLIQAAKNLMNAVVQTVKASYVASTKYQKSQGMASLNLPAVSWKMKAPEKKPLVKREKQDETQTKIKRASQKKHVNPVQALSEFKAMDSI
UniProt O60610: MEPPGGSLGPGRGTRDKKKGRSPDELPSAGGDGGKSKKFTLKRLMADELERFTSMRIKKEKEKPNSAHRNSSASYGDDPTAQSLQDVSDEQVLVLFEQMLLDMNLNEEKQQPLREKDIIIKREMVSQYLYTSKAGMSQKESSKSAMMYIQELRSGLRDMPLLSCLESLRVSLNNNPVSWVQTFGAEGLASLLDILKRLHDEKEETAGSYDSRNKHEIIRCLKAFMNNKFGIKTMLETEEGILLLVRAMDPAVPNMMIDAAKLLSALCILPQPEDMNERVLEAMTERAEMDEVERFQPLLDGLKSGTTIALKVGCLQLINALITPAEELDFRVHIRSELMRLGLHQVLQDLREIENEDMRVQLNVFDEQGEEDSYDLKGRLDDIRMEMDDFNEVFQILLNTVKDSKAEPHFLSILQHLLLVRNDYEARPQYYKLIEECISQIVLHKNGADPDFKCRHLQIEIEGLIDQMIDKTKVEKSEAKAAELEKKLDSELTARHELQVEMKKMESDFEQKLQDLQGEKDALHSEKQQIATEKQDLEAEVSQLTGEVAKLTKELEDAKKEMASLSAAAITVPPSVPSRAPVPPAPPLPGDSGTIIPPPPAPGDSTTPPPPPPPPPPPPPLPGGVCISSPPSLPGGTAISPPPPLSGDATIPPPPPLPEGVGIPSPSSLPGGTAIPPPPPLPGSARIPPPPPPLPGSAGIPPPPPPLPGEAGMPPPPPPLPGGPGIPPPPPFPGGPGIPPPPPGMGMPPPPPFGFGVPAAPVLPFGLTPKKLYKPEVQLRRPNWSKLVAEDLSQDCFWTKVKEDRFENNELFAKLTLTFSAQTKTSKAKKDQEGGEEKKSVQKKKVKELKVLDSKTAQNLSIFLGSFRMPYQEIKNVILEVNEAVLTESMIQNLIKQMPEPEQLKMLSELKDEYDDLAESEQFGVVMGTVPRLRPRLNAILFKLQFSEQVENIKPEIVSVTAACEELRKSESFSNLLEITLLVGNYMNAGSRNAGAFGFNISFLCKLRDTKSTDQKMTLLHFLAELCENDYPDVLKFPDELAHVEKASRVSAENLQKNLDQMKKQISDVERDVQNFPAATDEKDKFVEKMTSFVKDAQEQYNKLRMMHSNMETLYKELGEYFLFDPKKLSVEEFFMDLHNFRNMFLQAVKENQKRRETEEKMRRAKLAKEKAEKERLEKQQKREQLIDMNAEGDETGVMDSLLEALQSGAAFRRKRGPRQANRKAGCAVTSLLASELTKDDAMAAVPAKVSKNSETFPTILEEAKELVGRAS

How the values were obtained:
[1] = molecular target: GFP-β-catenin (UniProt P35222); experiment: co-IP
[2] = molecular target: GFP-mDia2 (UniProt Q9Z207); experiment: co-IP
[3] = molecular target: β-catenin (human (endogenous in OVCA429)) (UniProt P35222); experiment: co-IP
[4] = molecular target: N-cadherin (human (endogenous in OVCA429)) (UniProt P19022); experiment: co-IP
[5] = molecular target: mDia2 (mammalian Diaphanous-related formin 2) (human (endogenous in OVCA429)) (UniProt Q9NSV4); experiment: co-IP
[6] = molecular target: mDia2 (mammalian Diaphanous-related formin 2) (human (endogenous in OVCA429)) (UniProt Q9NSV4); experiment: proximity ligation
[7] = molecular target: β-catenin (human (endogenous in OVCA429)) (UniProt P35222); experiment: proximity ligation

Substance: Flag-mDia2 (from UniProt Q9Z207 1-1171)
binding [1]: binds

Substance: HA-α-catenin (from UniProt P35221 1-906)
binding [2]: binds

More lines, now with the values ahead:

binding [3]: no binding
binding [4]: no binding
Substance: mDia1 (Diaphanous-related formin 1) (from UniProt O60610 1-1272)

binding [5]: binds
binding [6]: binds
binding [7]: binds
Substance: αE-catenin (from UniProt P35221 1-906)

binding [5]: binds
binding [6]: binds
Substance: β-catenin (from UniProt P35222 1-781)
